According to publication doi:10.1101/2023.08.23.554515:
These are yes or no findings as the source states them, for the method shown. For part of these data: In cells and extracts the contact can be indirect. Some results given as binding are weak or reduced against the parent protein; the word gives no strength. Sequences can lack the tags named with a protein.

The chains behind the UniProt entries cited, without tags or fusion partners.
UniProt Q9C5X9: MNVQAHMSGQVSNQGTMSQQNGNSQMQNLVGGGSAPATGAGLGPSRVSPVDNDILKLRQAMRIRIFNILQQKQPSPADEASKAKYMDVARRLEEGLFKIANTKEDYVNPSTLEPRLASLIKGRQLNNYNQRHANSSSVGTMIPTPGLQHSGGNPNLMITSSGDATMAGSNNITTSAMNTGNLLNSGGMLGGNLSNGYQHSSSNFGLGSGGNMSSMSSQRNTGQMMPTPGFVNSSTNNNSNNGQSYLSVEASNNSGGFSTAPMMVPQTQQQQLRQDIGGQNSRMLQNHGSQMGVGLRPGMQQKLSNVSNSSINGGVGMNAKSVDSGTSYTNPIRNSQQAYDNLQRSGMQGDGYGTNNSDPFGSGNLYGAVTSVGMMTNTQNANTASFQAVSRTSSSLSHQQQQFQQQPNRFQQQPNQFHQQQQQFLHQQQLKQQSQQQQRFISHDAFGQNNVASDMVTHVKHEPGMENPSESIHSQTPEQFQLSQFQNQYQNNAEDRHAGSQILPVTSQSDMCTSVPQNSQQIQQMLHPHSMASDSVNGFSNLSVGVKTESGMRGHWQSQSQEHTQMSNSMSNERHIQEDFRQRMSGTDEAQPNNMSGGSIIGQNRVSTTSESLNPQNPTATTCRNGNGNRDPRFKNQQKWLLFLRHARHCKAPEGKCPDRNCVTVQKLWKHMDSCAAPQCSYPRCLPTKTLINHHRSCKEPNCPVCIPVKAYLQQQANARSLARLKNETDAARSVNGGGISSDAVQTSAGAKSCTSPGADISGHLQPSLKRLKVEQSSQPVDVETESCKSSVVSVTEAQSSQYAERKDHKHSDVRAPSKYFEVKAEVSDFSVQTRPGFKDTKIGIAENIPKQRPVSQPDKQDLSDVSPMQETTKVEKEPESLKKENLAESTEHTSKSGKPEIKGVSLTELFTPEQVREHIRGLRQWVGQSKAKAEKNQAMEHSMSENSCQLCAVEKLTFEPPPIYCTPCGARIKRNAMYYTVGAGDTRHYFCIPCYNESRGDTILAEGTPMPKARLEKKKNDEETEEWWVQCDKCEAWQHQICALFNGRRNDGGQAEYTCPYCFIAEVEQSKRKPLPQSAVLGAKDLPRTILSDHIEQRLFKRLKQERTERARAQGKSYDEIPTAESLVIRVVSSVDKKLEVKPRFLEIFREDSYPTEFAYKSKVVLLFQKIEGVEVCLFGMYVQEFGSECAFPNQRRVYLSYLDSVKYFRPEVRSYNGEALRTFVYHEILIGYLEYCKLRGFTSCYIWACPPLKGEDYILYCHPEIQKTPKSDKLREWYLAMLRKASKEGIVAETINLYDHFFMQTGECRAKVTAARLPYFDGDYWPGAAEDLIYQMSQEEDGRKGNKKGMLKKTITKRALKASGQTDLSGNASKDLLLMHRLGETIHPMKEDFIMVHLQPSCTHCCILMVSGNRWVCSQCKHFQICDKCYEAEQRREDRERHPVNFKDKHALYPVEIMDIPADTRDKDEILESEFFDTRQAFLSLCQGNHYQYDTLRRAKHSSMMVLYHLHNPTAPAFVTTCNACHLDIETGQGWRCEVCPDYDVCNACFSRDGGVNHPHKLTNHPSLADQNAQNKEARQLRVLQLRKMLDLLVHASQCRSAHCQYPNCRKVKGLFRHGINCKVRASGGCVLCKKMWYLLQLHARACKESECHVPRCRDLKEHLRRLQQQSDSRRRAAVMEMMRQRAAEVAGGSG

T1: LUH (yeast two-hybrid fusion) (Arabidopsis thaliana) (UniProt O48847)
T1 sequence: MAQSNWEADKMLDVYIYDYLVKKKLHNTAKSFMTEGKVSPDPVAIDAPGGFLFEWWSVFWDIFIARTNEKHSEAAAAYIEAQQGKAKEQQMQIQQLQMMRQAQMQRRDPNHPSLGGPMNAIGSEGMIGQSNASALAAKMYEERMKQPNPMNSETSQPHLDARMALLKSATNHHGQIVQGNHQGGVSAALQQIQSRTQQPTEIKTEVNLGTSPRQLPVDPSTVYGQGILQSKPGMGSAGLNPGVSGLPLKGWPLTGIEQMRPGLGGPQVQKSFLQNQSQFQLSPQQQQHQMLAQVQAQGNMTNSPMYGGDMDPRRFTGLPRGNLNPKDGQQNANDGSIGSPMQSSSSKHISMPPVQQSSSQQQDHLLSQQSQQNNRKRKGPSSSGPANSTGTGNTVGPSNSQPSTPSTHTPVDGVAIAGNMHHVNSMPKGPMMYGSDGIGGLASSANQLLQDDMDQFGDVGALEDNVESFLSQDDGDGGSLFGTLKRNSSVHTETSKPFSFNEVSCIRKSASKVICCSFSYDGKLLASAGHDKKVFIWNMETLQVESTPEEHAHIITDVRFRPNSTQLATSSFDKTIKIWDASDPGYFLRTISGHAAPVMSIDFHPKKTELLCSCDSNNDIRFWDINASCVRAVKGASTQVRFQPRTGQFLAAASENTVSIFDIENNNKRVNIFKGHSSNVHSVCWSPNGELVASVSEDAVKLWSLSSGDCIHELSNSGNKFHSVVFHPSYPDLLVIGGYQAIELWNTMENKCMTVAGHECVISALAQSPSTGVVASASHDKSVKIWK


Key:
[1] = molecular target: HAC1 (yeast two-hybrid fusion) (Arabidopsis thaliana) (UniProt Q9C5X9); test: two-hybrid; Gal4 Matchmaker system, pGAD-T7 and pGBK-T7 in yeast AH109, growth on SD-LTHA; 3-AT added for auto-activating constructs (5 mM for SWI3C, BRIP2 and HAC1)
[2] = molecular target: T1, LUH (yeast two-hybrid fusion) (Arabidopsis thaliana); test: as above
[3] = molecular target: HAC1, YFP-C fusion (BiFC) (Arabidopsis thaliana) (UniProt Q9C5X9); test: split reporter; BiFC: YFP-N and YFP-C fusions co-infiltrated with p19 into Nicotiana benthamiana leaves, confocal imaging two days after infiltration

Binder | binding [1] | binding [2] | binding [3]
MUTE (yeast two-hybrid fusion) (protein, UniProt Q9M8K6 1-202) MSHIAVERNRRRQMNEHLKSLRSLTPCFYIKRGDQASIIGGVIEFIKELQQLVQVLESKKRRKTLNRPSFPYDHQTIEPSSLGAATTRVPFSRIENVMTTSTFKEVGACCNSPHANVEAKISGSNVVLRVVSRRIVGQLVKIISVLEKLSFQVLHLNISSMEETVLYFFVVKIGLECHLSLEELTLEVQKSFVSDEVIVSTN | binds weakly |  | 
MUTE, YFP-N fusion (BiFC) (protein, UniProt Q9M8K6 1-202) MSHIAVERNRRRQMNEHLKSLRSLTPCFYIKRGDQASIIGGVIEFIKELQQLVQVLESKKRRKTLNRPSFPYDHQTIEPSSLGAATTRVPFSRIENVMTTSTFKEVGACCNSPHANVEAKISGSNVVLRVVSRRIVGQLVKIISVLEKLSFQVLHLNISSMEETVLYFFVVKIGLECHLSLEELTLEVQKSFVSDEVIVSTN |  |  | binds weakly
LUH (yeast two-hybrid fusion) (protein, UniProt O48847 1-787) MAQSNWEADKMLDVYIYDYLVKKKLHNTAKSFMTEGKVSPDPVAIDAPGGFLFEWWSVFWDIFIARTNEKHSEAAAAYIEAQQGKAKEQQMQIQQLQMMRQAQMQRRDPNHPSLGGPMNAIGSEGMIGQSNASALAAKMYEERMKQPNPMNSETSQPHLDARMALLKSATNHHGQIVQGNHQGGVSAALQQIQSRTQQPTEIKTEVNLGTSPRQLPVDPSTVYGQGILQSKPGMGSAGLNPGVSGLPLKGWPLTGIEQMRPGLGGPQVQKSFLQNQSQFQLSPQQQQHQMLAQVQAQGNMTNSPMYGGDMDPRRFTGLPRGNLNPKDGQQNANDGSIGSPMQSSSSKHISMPPVQQSSSQQQDHLLSQQSQQNNRKRKGPSSSGPANSTGTGNTVGPSNSQPSTPSTHTPVDGVAIAGNMHHVNSMPKGPMMYGSDGIGGLASSANQLLQDDMDQFGDVGALEDNVESFLSQDDGDGGSLFGTLKRNSSVHTETSKPFSFNEVSCIRKSASKVICCSFSYDGKLLASAGHDKKVFIWNMETLQVESTPEEHAHIITDVRFRPNSTQLATSSFDKTIKIWDASDPGYFLRTISGHAAPVMSIDFHPKKTELLCSCDSNNDIRFWDINASCVRAVKGASTQVRFQPRTGQFLAAASENTVSIFDIENNNKRVNIFKGHSSNVHSVCWSPNGELVASVSEDAVKLWSLSSGDCIHELSNSGNKFHSVVFHPSYPDLLVIGGYQAIELWNTMENKCMTVAGHECVISALAQSPSTGVVASASHDKSVKIWK | binds |  | 
FAMA (yeast two-hybrid fusion) (protein, UniProt Q56YJ8 1-414) MDKDYSAPNFLGESSGGNDDNSSGMIDYMFNRNLQQQQKQSMPQQQQHQLSPSGFGATPFDKMNFSDVMQFADFGSKLALNQTRNQDDQETGIDPVYFLKFPVLNDKIEDHNQTQHLMPSHQTSQEGGECGGNIGNVFLEEKEDQDDDNDNNSVQLRFIGGEEEDRENKNVTKKEVKSKRKRARTSKTSEEVESQRMTHIAVERNRRKQMNEHLRVLRSLMPGSYVQRGDQASIIGGAIEFVRELEQLLQCLESQKRRRILGETGRDMTTTTTSSSSPITTVANQAQPLIITGNVTELEGGGGLREETAENKSCLADVEVKLLGFDAMIKILSRRRPGQLIKTIAALEDLHLSILHTNITTMEQTVLYSFNVKITSETRFTAEDIASSIQQIFSFIHANTNISGSSNLGNIVFT | binds weakly | binds | 
FAMA, YFP-N fusion (BiFC) (protein, UniProt Q56YJ8 1-414) MDKDYSAPNFLGESSGGNDDNSSGMIDYMFNRNLQQQQKQSMPQQQQHQLSPSGFGATPFDKMNFSDVMQFADFGSKLALNQTRNQDDQETGIDPVYFLKFPVLNDKIEDHNQTQHLMPSHQTSQEGGECGGNIGNVFLEEKEDQDDDNDNNSVQLRFIGGEEEDRENKNVTKKEVKSKRKRARTSKTSEEVESQRMTHIAVERNRRKQMNEHLRVLRSLMPGSYVQRGDQASIIGGAIEFVRELEQLLQCLESQKRRRILGETGRDMTTTTTSSSSPITTVANQAQPLIITGNVTELEGGGGLREETAENKSCLADVEVKLLGFDAMIKILSRRRPGQLIKTIAALEDLHLSILHTNITTMEQTVLYSFNVKITSETRFTAEDIASSIQQIFSFIHANTNISGSSNLGNIVFT |  |  | binds weakly

Now from value to binder:

binding [1] | binding [2] | binding [3] | Binder
binds weakly | binds |  | SCRM, activation domain fusion (yeast two-hybrid) (protein, UniProt Q9LSE2 1-494) MGLDGNNGGGVWLNGGGGEREENEEGSWGRNQEDGSSQFKPMLEGDWFSSNQPHPQDLQMLQNQPDFRYFGGFPFNPNDNLLLQHSIDSSSSCSPSQAFSLDPSQQNQFLSTNNNKGCLLNVPSSANPFDNAFEFGSESGFLNQIHAPISMGFGSLTQLGNRDLSSVPDFLSARSLLAPESNNNNTMLCGGFTAPLELEGFGSPANGGFVGNRAKVLKPLEVLASSGAQPTLFQKRAAMRQSSGSKMGNSESSGMRRFSDDGDMDETGIEVSGLNYESDEINESGKAAESVQIGGGGKGKKKGMPAKNLMAERRRRKKLNDRLYMLRSVVPKISKMDRASILGDAIDYLKELLQRINDLHNELESTPPGSLPPTSSSFHPLTPTPQTLSCRVKEELCPSSLPSPKGQQARVEVRLREGRAVNIHMFCGRRPGLLLATMKALDNLGLDVQQAVISCFNGFALDVFRAEQCQEGQEILPDQIKAVLFDTAGYAGMI
 |  | binds weakly | SCRM, YFP-N fusion (BiFC) (protein, UniProt Q9LSE2 1-494) MGLDGNNGGGVWLNGGGGEREENEEGSWGRNQEDGSSQFKPMLEGDWFSSNQPHPQDLQMLQNQPDFRYFGGFPFNPNDNLLLQHSIDSSSSCSPSQAFSLDPSQQNQFLSTNNNKGCLLNVPSSANPFDNAFEFGSESGFLNQIHAPISMGFGSLTQLGNRDLSSVPDFLSARSLLAPESNNNNTMLCGGFTAPLELEGFGSPANGGFVGNRAKVLKPLEVLASSGAQPTLFQKRAAMRQSSGSKMGNSESSGMRRFSDDGDMDETGIEVSGLNYESDEINESGKAAESVQIGGGGKGKKKGMPAKNLMAERRRRKKLNDRLYMLRSVVPKISKMDRASILGDAIDYLKELLQRINDLHNELESTPPGSLPPTSSSFHPLTPTPQTLSCRVKEELCPSSLPSPKGQQARVEVRLREGRAVNIHMFCGRRPGLLLATMKALDNLGLDVQQAVISCFNGFALDVFRAEQCQEGQEILPDQIKAVLFDTAGYAGMI
